Results as given in paper PMC7819943, “Rice protein-binding microarrays: a tool to detect cis-acting elements near promoter regions in rice”.
This is one part of the list.

What follows are sequences tested against T1, OsSMF1 (Oryza sativa, UniProt Q6ZLB0 1-436) (assay: protein-binding microarray (RPBM); PBS, 2% BSA, 51.3 ng/ul salmon testes DNA, 50 uM zinc acetate, 200 nM TF, 25 C, 1 h; high values mean tight binding). Settings: protein: recombinant; tags: N-terminal polyhistidine and DsRed monomer fusion (pET32a); chain copies: 2; label: CyDye5-dUTP incorporated in the synthesized complementary strand; 3' TTTTT single-stranded linker to array surface; dsDNA, one strand shown.
T1 sequence: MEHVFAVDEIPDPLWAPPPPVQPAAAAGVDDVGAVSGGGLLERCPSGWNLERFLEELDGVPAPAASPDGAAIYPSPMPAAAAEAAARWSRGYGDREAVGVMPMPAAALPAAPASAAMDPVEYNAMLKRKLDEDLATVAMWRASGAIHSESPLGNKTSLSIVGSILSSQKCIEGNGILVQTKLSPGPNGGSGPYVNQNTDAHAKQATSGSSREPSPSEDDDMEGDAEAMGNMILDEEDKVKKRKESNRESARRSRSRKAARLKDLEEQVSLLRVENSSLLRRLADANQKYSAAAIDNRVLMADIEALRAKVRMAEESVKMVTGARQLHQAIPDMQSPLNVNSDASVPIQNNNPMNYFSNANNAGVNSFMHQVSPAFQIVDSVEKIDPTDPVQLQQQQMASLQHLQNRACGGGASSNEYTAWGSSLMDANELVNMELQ
In short: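 Using Ni–NTA, transcription factors fused N-terminally to polyhistidine and DsRed were purified after expression in E. coli BL21-CodonPlus. These were incubated at 200 nM with a blocked, double-stranded custom Agilent array for 1 h at 25 °C in a buffer containing 50 µM zinc acetate, and the array was washed. The binding signal is per-feature fluorescence intensity (arbitrary units) on an Axon 4000B scanner.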

Sequence | binding signal
GCCGCCGCAAGCTGCCCCTCCTCACCCGGCCGCTCCGCCCCGGAGTCACCTAGTGCAG | 21200 fluorescence intensity (a.u.)
CCGTCGCCCGAGAGCGAACGGCCGGCTGCCACGTCATTTTCGGAGTCACCTAGTGCAG | 21100 fluorescence intensity (a.u.)
GCAGCTGAACTTTGAGATGTGTGTGACACACATGTGTTTGCGGAGTCACCTAGTGCAG | 5060 fluorescence intensity (a.u.)
CGTCACCTATAATTTTCGCTGGCGGTTATACGTGAAAACCCGGAGTCACCTAGTGCAG | 3310 fluorescence intensity (a.u.)
GAACAAAAGAGCTCTCACTACTGACATCATCATCAAATTACGGAGTCACCTAGTGCAG | 5500 fluorescence intensity (a.u.)
ATCCAGGAGTCCAGCACGAACTGCATGCGTCAACATGCAACGGAGTCACCTAGTGCAG | 4560 fluorescence intensity (a.u.)
TGGGAGAGGCTGAGGAAGTGGCAAACCGGCAGCTGTGACGCGGAGTCACCTAGTGCAG | 3430 fluorescence intensity (a.u.)
CCGGGTCAACTTGCCACATCAGTGAATCCAGACATCTACACGGAGTCACCTAGTGCAG | 5980 fluorescence intensity (a.u.)
GCCAACTGCCATGTCAGCAACTAACGCGCTCGCTTCCTTCCGGAGTCACCTAGTGCAG | 13400 fluorescence intensity (a.u.)
GACCTCATCAATGCTGCTCGTAATAGTACTACTACTCCTACGGAGTCACCTAGTGCAG | 4310 fluorescence intensity (a.u.)
GCCAGTAAACCAATGGAGGACTGGCCTGTGGTGTACAACTCGGAGTCACCTAGTGCAG | 3140 fluorescence intensity (a.u.)
TGATTAAAGTATTCTTATTTCTCTTTTGAGCAATATCTAACGGAGTCACCTAGTGCAG | 21900 fluorescence intensity (a.u.)
CTATAGTGTGTGACGACTTTCTGGACGATGGCTTGACGCACGGAGTCACCTAGTGCAG | 3160 fluorescence intensity (a.u.)
TATCGAGTCCCTGTAAGTTGTAACACGTGTTTGTTTCTCTCGGAGTCACCTAGTGCAG | 4470 fluorescence intensity (a.u.)
ACTCTATGCTGAGTGACCTGGCATTTATTAAGACAATTGCCGGAGTCACCTAGTGCAG | 7720 fluorescence intensity (a.u.)
AATCCTCCTCCCTCATCAGTCGTCACGCCCACCACCCCACCGGAGTCACCTAGTGCAG | 4860 fluorescence intensity (a.u.)
CGCTCGCCCGCATCCGCATGACGCGCACGGGAAGCGGCCGCGGAGTCACCTAGTGCAG | 3970 fluorescence intensity (a.u.)
CCGGTGCGCCCATCTCGTACGGTGCGACGTGCGTGCGGCCCGGAGTCACCTAGTGCAG | 4120 fluorescence intensity (a.u.)
TCGTGTGGTCGGAGGGGACGCGGGGCAGGAGCGGCGCGGGCGGAGTCACCTAGTGCAG | 3160 fluorescence intensity (a.u.)
CTTTACATTTTGAATAATGACGCAACCTTAAAACACTACTCGGAGTCACCTAGTGCAG | 6280 fluorescence intensity (a.u.)
CCGTACGTATCATATCTGATATTTAGGTATCATACTGACGCGGAGTCACCTAGTGCAG | 3680 fluorescence intensity (a.u.)
TCACGTGACTGGATCCCTCTTCTCTCTCGCGCGAGCGTCGCGGAGTCACCTAGTGCAG | 4530 fluorescence intensity (a.u.)
GAGTCTAGGAAATTGTCATGTATGAAAATTTTAAAAGTGGCGGAGTCACCTAGTGCAG | 27900 fluorescence intensity (a.u.)

Single values from the list:
Entry of CCGTACGTATCATATCTGATATTTAGGTATCATACTGACGCGGAGTCACCTAGTGCAG under binding signal: 3680 fluorescence intensity (a.u.)
Entry of CGTCACCTATAATTTTCGCTGGCGGTTATACGTGAAAACCCGGAGTCACCTAGTGCAG under binding signal: 3310 fluorescence intensity (a.u.)
